## Library screen at single concentrations

Data taken from ChEMBL document CHEMBL3988442, “University of Dundee, Small-Polar-MMV Screening Library” (2021).

Results are given as percent effect.
How 0% and 100% were set is not recorded. Most values in the screen are low, and negative values occur.
This is an unselected part of the compounds tested.
A dash means the value is not listed here; it may have been measured.

T. brucei: 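Whole-parasite assay of Trypanosoma brucei over 72 hours; the read-out is not stated. Compounds at 30 µM. Direction is inferred from retests: higher values go with stronger inhibition. Values scatter widely below zero; nearly all retest evidence comes from the higher of the two concentrations used. Of about 64,000 compounds tested this way, about 940 (1.5%) reached 50% or more in at least one test.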
Toxoplasma: 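Assay of Toxoplasma gondii numbers, read through their beta-galactosidase reporter with a colour substrate. Compounds at 10 µM. The record gives no direction; the compounds picked for IC50 retests had high values, so higher reads as fewer parasites. Of about 67,000 compounds tested this way, about 260 (0.38%) reached 50% or more in at least one test.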

| SMILES | T. brucei | Toxoplasma |
|---|---|---|
| `CC(NC(=O)CCCOc1ccccc1)c1nnc2n1CCCCC2` (centres undefined) | 0.1394 | -0.9765 |
| `Cc1cccc(C)c1CCNC(=O)N1CCCC2(C1)OCCO2` | -4.077 | 4.092 |
| `Cc1ccc(CC(=O)Nc2ccc(CS(C)(=O)=O)c(F)c2)cc1` | -56.83 | -0.6808 |
| `O=C(C1CCCO1)N1CCc2ncnc(NC3CCC3)c2CC1.O=C(O)C(F)(F)F` (centres undefined) | -56.73 | -24.02 |
| `CNC(=O)C1CN(Cc2ccc(C#N)cc2F)c2ccccc2O1` (centres undefined) | -14.09 | 12.56 |
| `Cc1cccn2c(=O)cc(CN3CCCC3Cn3cncn3)nc12` (centres undefined) | 12.96 | -9.217 |
| `[H][C@]12CN(C(=O)c3ccno3)CCN1C(=O)N(Cc1ccc(C)cc1)C2` | -11.8 | -3.835 |
| `Cc1csc(N2CCCN(C(=O)c3cnns3)CC2)n1` | -1.423 | 3.571 |
| `O=C(Cc1ccccc1F)N1CCN(C(=O)c2cccc(F)c2)CC1` | -38.54 | -3.469 |
| `COc1ccc(CNC(=O)N2CCC(Cc3cnn(C)c3)C2)cc1C` (centres undefined) | -20.35 | -3.835 |
| `Cc1ccc(C(CC(=O)O)NC(=O)CCc2cccs2)cc1` (centres undefined) | - | 2.448 |
| `O=C(c1ccc(F)c(F)c1)N1CCC(Cn2cc(CO)nn2)CC1` | -26.46 | 4.447 |
| `N#Cc1cccc(OCCN2CCOC(Cn3cccn3)C2)c1` (centres undefined) | 18.2 | -0.9754 |
| `CN1C(=O)CCCC12CCCN(C(=O)c1ccc3c(c1)OCO3)C2` (centres undefined) | -16.59 | -11.89 |
| `Cn1nc(CNC(=O)C2CCC2)cc1C1CC1` | 4.41 | 12.51 |
| `Cc1ccc(C(=O)Nc2ccc(S(=O)(=O)/N=C3\CCCN3C)cc2)s1` | - | 15.13 |
| `CC(C)c1ncc2c(n1)CN(Cc1cccc(C#N)c1)CC2` | -4.276 | -11.43 |
| `Cl.Clc1ccccc1CN1CCc2nc(C3CCCNC3)ncc2C1` (centres undefined) | 6.781 | 12.89 |
| `COc1ccccc1OC1CCN(C(=O)C2CCCN(C)C2)CC1` (centres undefined) | -50.16 | 8.02 |
| `O=C1CC(N(C(=O)c2ccc(F)c(F)c2)C2CC2)C(=O)N1` (centres undefined) | - | -25.71 |
| `COCCNC(=O)Cn1c(-c2ccc(Cl)cc2)nc(C)c(CCO)c1=O` | -36.27 | -7.563 |
| `Cc1nc(N)nc(C)c1CC(=O)N1CCCCC1c1cccc(F)c1` (centres undefined) | 0.831 | 11.51 |
| `Cc1nnc(NCc2ccc(Br)cc2)o1` | -34.59 | 4.104 |
| `CCN(Cc1ccc(O)c(C(=O)O)c1)CC1CCOCC1` | -62.42 | 24.98 |
| `CCN(CC)S(=O)(=O)CC(=O)N1CCc2ccc(Cl)cc21` | 14.66 | -5.894 |
| `Cc1nccn1-c1cccc(N2CCC(OCC3CCCCO3)CC2)n1` (centres undefined) | -129 | 20.38 |
| `CCCN1CCN(C(=O)c2scnc2C)CC1` | 19.9 | -1.961 |
| `O=C(O)C(F)(F)F.[H][C@@]12CN(C)C[C@]1(C(=O)NC)CCCN2c1ncccn1` | -23.68 | -1.885 |
| `COc1c(C2CCCN2C(=O)c2c[nH]c3ncccc23)c(C)nn1C` (centres undefined) | -2.703 | 1.001 |
| `CC(O)CN1CCc2[nH]nc(C(c3ccccc3)c3ccccc3)c2C1` (centres undefined) | -8.753 | 13 |
| `Cc1nc(C)n(C2CCCN(C(=O)c3ccc(F)c(F)c3)C2)n1` (centres undefined) | - | -5.725 |
| `CCc1cc(CN(C)C(=O)c2cnon2)on1` | -15.16 | -9.613 |
| `CC(C)N1CCC2(CC1)CN(C)C(=O)C[C@H]2C(F)(F)F` | -49.73 | -4.309 |
| `Cn1nccc1CNS(=O)(=O)c1cc(F)ccc1Br` | -6.643 | -0.0612 |
| `Cc1cnn(CC2CCCN2Cc2nnc(Cc3ccccc3)o2)c1` (centres undefined) | -41.56 | 3.733 |
| `COCc1noc(C2(c3ccc(OC)cc3)CCOCC2)n1` | -4.014 | 0.4616 |
| `O=C(O)C(F)(F)F.[H][C@@]12CCN(C(C)C)C[C@]1([H])CN(C(=O)c1ccc(C)nc1)C2` | -14.65 | -10.87 |
| `Cn1cccc1C(=O)NCc1cn2c(n1)CN(c1ncccn1)CC2` | -25.12 | 11.64 |
| `Cn1c(Nc2ccc(F)cc2)c(C#N)c(=O)n(C)c1=O` | -4.429 | 3.42 |
| `CCc1ccccc1NC(=O)c1cccc(N(C)S(C)(=O)=O)c1C` | -29.17 | -2.904 |
| `CC(C)NC(=O)c1nc2c(s1)CCCN2c1ccccc1` | - | -18.42 |
| `Nc1nc(Sc2cccs2)cc(N2CC[C@H](CO)[C@H](O)C2)n1` | -79.71 | 6.168 |
| `CCNc1ncc(C(=O)NCc2csc(-c3cnccn3)n2)cn1` | -26.42 | 5.933 |
| `COCCN(Cc1ccc(F)cc1Cl)C(=O)c1cccc[n+]1[O-]` | -18.8 | 3.315 |
| `Cc1cc(C)n(CC(C)NC(=O)C2(c3ccc(F)cc3)CC2)n1` (centres undefined) | -19.58 | -1.768 |
| `Cc1cccc(NC(=O)NCCCn2nc3ccccn3c2=O)c1C` | 1.146 | 6.835 |
| `CN(C)c1ccc(C(O)CNS(=O)(=O)C2CC2)cc1` (centres undefined) | -42.47 | -3.218 |
| `COc1cc2c(cc1OC)CN(C(=O)NCC1CCCO1)CC2` (centres undefined) | -14.81 | -6.537 |
| `Cc1c(C(=O)N2CCS(=O)(=O)CC2)nnn1-c1ccc2ncccc2c1` | 11.55 | -2.545 |
| `CC(CC1CC1)NCCCN1CCCN(C)CC1` (centres undefined) | -24.45 | -21.57 |
| `N#Cc1ccc(C(=O)N2CCC3(CC2)CC3)cc1` | 13.02 | 6.398 |
| `COc1ccc(-c2cc(C3CCN(C(C)=O)CC3)ccn2)cc1` | 11.63 | 8.723 |
| `Cl.O=C(c1ccnc(C2CCNCC2)c1)N1CCCC1` | -17 | 11.25 |
| `CC1(C)CC(N2Cc3nc(N4CCOCC4)ncc3C2=O)CC(C)(C)N1` | -17.88 | 5.651 |
| `CN1CCC(c2nc3ccc(-c4ccccc4)cn3n2)CC1.O=C(O)C(F)(F)F` | -11.15 | -37.28 |
| `O=C(O)C(F)(F)F.[H][C@@]12CCN(C3CCOCC3)[C@]1([H])CCC(=O)N2Cc1csc(C)n1` | -42.08 | -9.727 |
| `O=C(NC1CC1)c1ccnc(N2CCOC(c3ccc(Cl)cc3)C2)c1` (centres undefined) | 3.892 | -1.82 |
| `O=S(=O)(c1ccc(-c2nc3c([nH]2)CCNC3)cc1)N1CCCC1` | -16.64 | -0.2647 |
| `O=C(CCO)N1CCC2(CCc3ccc(-c4ccoc4)cc32)CC1` | -69.4 | -4.153 |
| `O=C(CC1COCCN1)N1CCCN(C2Cc3ccccc3C2)CC1` (centres undefined) | 7.31 | 2.826 |
| `Cc1cnn(C2CN(Cc3noc(C4CC4)n3)C2)c1` | -128.4 | -5.725 |
| `Oc1nc(N2CCCC2)nc2c1CCN(Cc1ccsc1)CC2` | -21.9 | -11.6 |
| `Cc1ncccc1Oc1cncc(C2CCCN2Cc2cncn2C)n1` (centres undefined) | -41.5 | -8.84 |
| `O=C(O)c1cc(/C=C/c2ccccc2)ncn1` | 41.67 | 4.767 |
| `Cc1sc2nc(CCN)nc(N(CCN(C)C)CC3CCCO3)c2c1C` (centres undefined) | 33.05 | 16.85 |

For reference, 6 entries once more:

{"smiles": "COc1ccc(-c2cc(C3CCN(C(C)=O)CC3)ccn2)cc1", "T. brucei": 11.63, "Toxoplasma": 8.723}
{"smiles": "Cl.Clc1ccccc1CN1CCc2nc(C3CCCNC3)ncc2C1", "stereo": "centres undefined", "T. brucei": 6.781, "Toxoplasma": 12.89}
{"smiles": "Oc1nc(N2CCCC2)nc2c1CCN(Cc1ccsc1)CC2", "T. brucei": -21.9, "Toxoplasma": -11.6}
{"smiles": "O=C(CCO)N1CCC2(CCc3ccc(-c4ccoc4)cc32)CC1", "T. brucei": -69.4, "Toxoplasma": -4.153}
{"smiles": "CC(NC(=O)CCCOc1ccccc1)c1nnc2n1CCCCC2", "stereo": "centres undefined", "T. brucei": 0.1394, "Toxoplasma": -0.9765}
{"smiles": "[H][C@]12CN(C(=O)c3ccno3)CCN1C(=O)N(Cc1ccc(C)cc1)C2", "T. brucei": -11.8, "Toxoplasma": -3.835}